Tested on: Mice (C57/B6J) fed with high-fat food
Settings: all groups compared; glutathione 6 and 60 mg/kg/day
Source text: Mice (C57/B6J, 8 weeks old male) were divided into 4 groups (5 animals each), and the first group (DB) was freely fed with ordinary food (CertifiedDiet “MF” manufactured by Oriental Yeast Co., ltd.). The second group (HFD) was freely fed with high-fat food (High Fat Diet 32, manufactured by CLEA Japan, Inc.), […].
When the mouse was 20 weeks old, the body weight, the liver weight, the serum aspartate aminotransferase (AST), the alanine aminotransferase (ALT), the serum triglyceride (TG), the free fatty acid value (FFA) and the total cholesterol value (T-cho) were measured.

N[C@@H](CCC(=O)N[C@@H](CS)C(=O)NCC(=O)O)C(=O)O [glutathione]
consumption amount of feed: no significant difference
consumption amount of water: no significant difference
